Assay results published in patent EP2657347A1, “Electrochemical competitive assay and use thereof” (Université Paris Diderot - Paris 7, priority 2012, dated 2013).

What was measured:
D-Apt49 [1] = assay: Cyclic voltammetry titration of ferrocene-labeled target with aptamer; type: binding
Experimental: (§1) All experiments were performed in 5 mM Tris buffer (pH 7) containing 10 mM MgCl2 and 50 mM NaCl (Recognition Buffer, RBr). The L-Tym concentration is always 5 µM. For cyclic voltammetric experiments, 1 µM [Os(bpy)3]2+ with 5 µM 1-Tym in a droplet of 50 µL RBr was used. So, before each experiment, the droplet is shaking with a micropipette. This procedure is repeated until we obtain a reproducible and stable voltammogram. Mother solution of Fc-1-Tym was a […] solution in DMF. This product is conserved at 4°C and seal with parafilm. Before each experiment, this solution is diluted 10 times in stabilized DMF, such as 0.2 µL in 50 µL of RBr leads to 5 µM of Fc-1-Tym.
Cyclic voltammetry measurements were performed with an AUTOLAB PGSTAT 12 potentiostat/galvanostat controlled by computer, and the data were acquired using GPES 4.9007 software (EcoChemie, The Netherlands). […]
(§2) The competitive assay can be described by the two equilibrated binding reactions 6a and 6b, in which Fc-L-Tym is L-tyrosinamide labeled by a redox-active ferrocene group. […] Note that under this condition the catalytic oxidation of the phenolic residue is no more possible and only the ferrocene labeled molecule can be detected. […] The value of K^*d was determined by monitoring in CV the reversible response of 5 µM Fc-L-Tym solution as a function of increasing concentrations of D-Apt49. […]

D-Apt49 [2] = assay: Homogeneous electrochemical competitive binding assay in Tris buffer; settings: for ip^(∞) /ip^0: 5 µM Fc-L-Tym
Experimental: as §1
Cyclic voltammetry measurements were performed with an AUTOLAB PGSTAT 12 potentiostat/galvanostat controlled by computer, and the data were acquired using GPES 4.9007 software (EcoChemie, The Netherlands). Small self-contained electrochemical cells made of 3 screen-printed electrodes on a flat substrate were used for all experiments. The electrodes were printed using a DEK model-65 screen-printer. Working electrodes were 4 mm diameter screen-printed carbon electrodes prepared using a commercial carbon ink (Electrodag PF-470 A) deposited on the top of an underlying Ag layer (Electrodag 418 SS). Counter electrode was obtained using an Ag ink (Electrodag 418 SS).
Before experiments, the screen-printed carbon electrodes were coated with bovine serum albumin (BSA) by immersing the electrodes in a 1 mg/mL BSA solution for 10 minutes at room temperature. […]
as §2

D-Apt49 [3] = assay: Homogeneous electrochemical competitive binding assay in 20% fetal bovine serum; settings: 5 µM Fc-L-Tym
Experimental: • Figure 1: Electrochemically competitive assay of the invention. Left-hand column: before the addition of the sample: a first redox signal is measured. Right-hand column: after the addition of a sample containing the target to be detected or measured: a second redox signal is measured. (A) Homogeneous electrochemically competitive assay: the presence of the target disrupts the complex formed between the oligonucleotide ligand and the redox-labeled target. […] (B) Heterologous electrochemically competitive assay, wherein the oligonucleotide ligand is attached to a solid phase: the presence of the target disrupts the complex formed between the oligonucleotide ligand and the redox-labeled target, thereby inducing a better detection of the redox labeled-target. […] (C) Heterologous electrochemically competitive assay, wherein the oligonucleotide ligand is attached to the electrode: the presence of the target disrupts the complex formed between the oligonucleotide ligand and the redox-labeled target, thereby reducing the detection of the redox labeled-target. […] (f) CV of 1 µM [Os(bpy)3]^2+ alone. […] Error bars: standard deviations from 3 measurements. […]

Row | Structure (SMILES) | ip^(∞) /ip^0 (D-Apt49 [1]; normalized anodic peak current of ferrocene at infinite aptamer concentration, fit in Figure 3B) | K^*d lower than the dissociation constant obtained for L-Tym (D-Apt49 [1]; ratio of Kd of L-Tym to K^*d of Fc-L-Tym) | ip^(∞) /ip^0 (D-Apt49 [2]; 3 µM D-Apt49, Tris buffer) | ip^(∞) /ip^0 (D-Apt49 [2]; 10 µM D-Apt49, Tris buffer) | ip^(∞) /ip^0 (D-Apt49 [3]; 40 µM D-Apt49) | ip^(∞) /ip^0 (D-Apt49 [3]; 100 µM D-Apt49) | lowest concentration detected in the presence of excess enantiomer (D-Apt49 [2]; in the presence of 5 mM D-Tym, 10 µM D-Apt49, Tris buffer) [µM]
1 | NC(=O)[C@@H](N)Cc1ccc(O[c-]2cccc2)cc1.[Fe+2].c1cc[cH-]c1 [Fc-L-Tym, O-Ferrocenyltyrosynamide] | 0.40 | ~ 2.5 fold | 0.44 | 0.44 | 0.15 | 0.15 | –
2 | NC(=O)[C@@H](N)Cc1ccc(O)cc1 [L-Tym, L-tyrosinamide] | – | – | – | – | – | – | 5
